Results deposited as PubChem BioAssay AID1159578 (Peter MacCallum Cancer Centre, 2015).
The deposit covers about 18,000 reagents; below is an unselected part. Of all reagents, about 1,030 (5.7%) were called active. 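Inactive calls also include pools with fewer than 3300 nuclei, whose migration was not assessed.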 Raw values are not corrected between plates. A number with no mark means an inactive call. The numbers tell different reagents against one gene apart. Not all columns of the deposit are shown. Reagent sequences are not shown.

Screen: 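Knock-downs that alter how fast lymphatic endothelial cells migrate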 (primary screen)
Cells: human lymphatic endothelial cells
Reagent: siRNA pool against human genes, 40 nM
Timing: 48 h after transfection
Detection: 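Cells stained with dye and imaged after a scratch; covered wound area and nuclei counted, duplicates averaged, migration set against mock wells and turned into a robust z-score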
Scale: migration robust z-score: higher = faster migration into the scratch; nuclei per well: higher = more cells in the well
Rule for the call: 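Pools averaging fewer than 3300 nuclei are never called; remaining pools count as changed when migration robust z lies outside -2 to 2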
Calls: active = migration changed; inactive = no migration change, or too few cells

Against H2BC1 the deposit lists migration robust z-score 1.48; nuclei per well, duplicate mean 6876.
CMTM8 showed migration robust z-score -2.74 (active); nuclei per well, duplicate mean 3808.
Silencing of PBK gave: migration robust z-score 0.21; nuclei per well, duplicate mean 6553.
Silencing of KLK5 came out at: migration robust z-score -2.34 (active); nuclei per well, duplicate mean 3640.
Knock-down of NCK1 came out at: migration robust z-score -1.2; nuclei per well, duplicate mean 3480.
Knock-down of TXLNGY #1 came out at: migration robust z-score 0.12; nuclei per well, duplicate mean 6030.
TXLNGY #2 scored migration robust z-score -0.12; nuclei per well, duplicate mean 5250.
With knock-down of BLOC1S1, the screen gave migration robust z-score -0.77; nuclei per well, duplicate mean 4679.
With knock-down of HGF the results were migration robust z-score -0.49; nuclei per well, duplicate mean 5316.
With knock-down of OR14K1 the results were migration robust z-score -0.9; nuclei per well, duplicate mean 5971.
Depletion of TNS4 resulted in: migration robust z-score 0.12; nuclei per well, duplicate mean 5872.
Silencing of GALR2 gave: migration robust z-score -0.94; nuclei per well, duplicate mean 6920.
NYAP1 gave migration robust z-score -0.76; nuclei per well, duplicate mean 5103.
CCDC18 scored migration robust z-score 2.66 (active); nuclei per well, duplicate mean 6092.

Active calls (from the list above):
CMTM8 → migration robust z-score = -2.74 (active); nuclei per well, duplicate mean = 3808
KLK5 → migration robust z-score = -2.34 (active); nuclei per well, duplicate mean = 3640
CCDC18 → migration robust z-score = 2.66 (active); nuclei per well, duplicate mean = 6092

The list goes on.
Silencing of TMEM150A gave: migration robust z-score -0.32; nuclei per well, duplicate mean 5798.
Depletion of CDX1 came out at: migration robust z-score -0.14; nuclei per well, duplicate mean 7970.
After knock-down of PRY2, the record shows migration robust z-score -1.98; nuclei per well, duplicate mean 5187.
For CPO, the entry reads migration robust z-score 0.16; nuclei per well, duplicate mean 5511.
Against QTRT1 the deposit lists migration robust z-score 0.36; nuclei per well, duplicate mean 6621.
PPIB showed migration robust z-score 0.08; nuclei per well, duplicate mean 4561.
For C10orf120, the values are migration robust z-score 1.29; nuclei per well, duplicate mean 5932.
After knock-down of G3BP1, the record shows migration robust z-score 1.74; nuclei per well, duplicate mean 7032.
Silencing of TMC8 gave: migration robust z-score 0.52; nuclei per well, duplicate mean 5714.
For CYBB, the entry reads migration robust z-score -0.42; nuclei per well, duplicate mean 4268.
Depletion of CCDC57 resulted in: migration robust z-score 3.18 (active); nuclei per well, duplicate mean 7328.
With knock-down of MBIP the results were migration robust z-score 0.36; nuclei per well, duplicate mean 4988.
TFDP2 gave migration robust z-score 0.78; nuclei per well, duplicate mean 4652.
